Earlier results as cited in EP1272854B1, “METHOD FOR DETECTING A HORMONE DISRUPTING ACTIVITY OF ENVIRONMENTAL POLLUTANTS” (Meulenberg, Petronella Mariette Maria, priority 2000, dated 2001).
At least one compound was matched to its structure with a doubt left.

Tested on: TBG (Thyroxine Binding Globulin)
Settings: T4 versus T3, one binding site; cited from earlier work

Which “affinity to TBG relative to T3” value does the source give for `NC(Cc1cc(I)c(Oc2cc(I)c(O)c(I)c2)c(I)c1)C(=O)O` (stereo not shown) [T4, tetra-iodothyronine] here?
Its value is “approximately 50 times”.
